Consider one molecule from PMC8795117.

For the test, the target named is IndC (Streptomyces chromofuscus) (UniProt K4MP98). The test is described as follows: SEC; gel filtration of the purified embedded BmdB–BmdC constructs and of IndC, each alone (Fig. 5d); both purified. A general note: Size exclusion chromatography separates by hydrodynamic size, large species first.

These are yes or no findings as the source states them, for the method shown.

B1: IndC (enzyme, UniProt K4MP98 1-1377)
chain: MSVETIPCSRRAALGLPGLLRERARATPDRTAAVHEHQSLTFAQLTEDSSHVGALLRQAGVGRDSRVGVFMEPSLDLLTGVWGILWAGGCYVPLSPEYPEERIAYMLADAGVDIVLTQEFLRSTLQELAPAGVVVLTLDEMLRTAERDGSAFGRPEPEVRPDDLAYVIYTSGSTGKPKGVMVEHRSIVSQMRWLHDECGIDENEIILQKTPMSFDAAQWELLALACGSTVVMGSSGIYRDPEAIISTVQRHGVTTLQCVPTLLQALLDTEKFPDCGTLRRIFSGGEALSRSLAAQCLDTMPGARLVNLYGPTECTINASSFVVDRAALEDGPLVMPIGTPVHDTSLHVLRPDGAPVSAGEIGELYIGGVQVARGYLGRPDLTGDRFMADPFSDAPGSRLYRTGDLAHVNADGTVQFVGRADNQVKLRGYRVELDEIRQTVETHDWVRAAAVLLRDDATTGFQNLVAFVELNPKEAALMDQGNHGSHHQSKASRLQVRAQLAHPGCRDDADLAGRAAIDLPGAEATPGQRALAFSRKTYRFYEGSPVTRDDILHLLGPRPRPRPSARTSDIVGRDELGTILRNFGRHLSDQRLLPKYAYASPGSLYATQLYVEIGGGHDVPAGLYYYHPLHHRLVLVGPASETETSPVRIHFLGKHGAIEPVYRNNVREVLEIEAGHMVGLFEEVLPAHGLRIAAAAYQPAVRHRLDCAPEDHYLGSFDLLPQARGASEDTDTLDIYVQAHSTRIEGLPPGQYRYTGAGLVRIGDDVILKKHVIAINQRVYERSDFGISLVATGSASWRRYLDLGRGLQRLQMNDLHLGFMSSGYSSKSGNDLPSAKRLGRILADGGLPAGPSYFCVGGRVSDAQWRGEDMKEDVVHMQGPAELIKEDLAALLPRYMLPNRIVVLDRLPQTANGKIDLKALQTTQEAQLTVGERAFMAPRTPLERRIRDIWQAVLKRDQVSVTDDFFELGGNSLLAVALVSRLNADFGGAIPLQILFEAPTVERLAAALEATSPRPASRLVPLQPEGRGTPLYCWPGLGGYPMNLRPLAAALGTERPVHGVQAHGINPGEFPYDDVRAMAAADVEAIREIQPHGPYLLCGYSFGARVAFEAARQLEQAGEQVEQLFLVAPGQPRLRPEDAVGATGRADFTDRAFLALLFSVFAGTLSGPRLDQCLRTVTDEDGFVAFVTASFPGLGEELVRAVTGIVRRTYSLTYEFHELRGRRLDAPVTLVRATDDNYSFIEHEGGYSARPPAVHQLRSGHYELLREPHVARLAAVLNDRLSAGPSTSPRHSQPAQATVQEVGVPHINIKHFPVSITEEKELELVAAVTTAVRNAFGCTEEVVSIALEPVAQEVWNERVYIPEIVARQELLRKTPNY
For the molecule B1, the binding result is “no binding”.
